These are yes or no findings as the source states them, for the method shown.
Biological target: recombinant intra-melanosomal domain of human tyrosinase (Tyrtr) (human) (UniProt P14679)
Assay: SEC; Superdex 200 Increase 10/300, calibrated with Bio-Rad SEC standards; SEC buffer 50 mM Tris-HCl, pH 7.4, 1 mM EDTA, 150 mM NaCl, 50 µM TCEP; both purified

binding: no binding
B1: recombinant intra-melanosomal domain of human tyrosinase (Tyrtr) (domain or fragment, UniProt P14679 19-469)
chain: HFPRACVSSKNLMEKECCPPWSGDRSPCGQLSGRGSCQNILLSNAPLGPQFPFTGVDDRESWPSVFYNRTCQCSGNFMGFNCGNCKFGFWGPNCTERRLLVRRNIFDLSAPEKDKFFAYLTLAKHTISSDYVIPIGTYGQMKNGSTPMFNDINIYDLFVWMHYYVSMDALLGGSEIWRDIDFAHEAPAFLPWHRLFLLRWEQEIQKLTGDENFTIPYWDWRDAEKCDICTDEYMGGQHPTNPNLLSPASFFSSWQIVCSRLEEYNSHQSLCNGTPEGPLRRNPGNHDKSRTPRLPSSADVEFCLSLTQYESGSMDKAANFSFRNTLEGFASPLTGIADASQSSMHNALHIYMNGTMSQVQGSANDPIFLLHHAFVDSIFEQWLRRHRPLQEVYPEANAPIGHNRESYMVPFIPLYRNGDFFISSKDLGYDYSYLQDSDPDSFQDYIKSYLE

Source: article PMC7037427
